Record: PubChem BioAssay AID1259425 (University of Nebraska Medical Center, 2018)

Aim: 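Compare each knockdown with KSR1 silencing using changes in marker transcripts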 (primary screen)
Cell system: HCT116 human colon cancer cells
Knock-down reagent: siRNA pool against human genes, 50 nM siRNA
Detection: 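mRNA of six signature genes measured together by branched-DNA assay after 50 nM siRNA pool, blank removed, divided by geometric mean of two housekeeping genes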
Scale: BNIP3L mRNA: higher = more BNIP3L transcript after knockdown; NDRG1 mRNA: higher = more NDRG1 transcript after knockdown; BNIP3 mRNA: higher = more BNIP3 transcript after knockdown
Here is one part, drawn at random, of about 14,000 reagents. Further read-outs or replicates are left out here. Reagent sequences are not shown. The record does not give: the time to read-out.

The opening 3 entries, ahead of the listing:
no.	gene symbol	BNIP3L mRNA, set 1	NDRG1 mRNA, set 1	BNIP3 mRNA, set 1
1	SERPINA1 (serpin family A member 1)	0.223	0.488	0.244
2	FOLH1B (folate hydrolase 1B (pseudogene))	0.132	0.172	0.238
3	TRAPPC11 (trafficking protein particle complex subunit 11)	0.103	0.122	0.312

Results, from the start:
no.	gene symbol	BNIP3L mRNA, set 1	NDRG1 mRNA, set 1	BNIP3 mRNA, set 1
1	SERPINA1 (serpin family A member 1)	0.223	0.488	0.244
2	FOLH1B (folate hydrolase 1B (pseudogene))	0.132	0.172	0.238
3	TRAPPC11 (trafficking protein particle complex subunit 11)	0.103	0.122	0.312
4	RPL30 (ribosomal protein L30)	0.252	0.18	0.296
5	TIAL1 (TIA1 cytotoxic granule associated RNA binding protein like 1)	0.124	0.0995	0.353
6	ETF1 (eukaryotic translation termination factor 1)	0.126	0.29	0.148
7	ATF6 (activating transcription factor 6)	0.0849	0.225	0.311
8	TMEM87B (transmembrane protein 87B)	0.14	0.171	0.217
9	SYBU (syntabulin)	0.064	0.198	0.214
10	MYH2 (myosin heavy chain 2)	0.139	0.235	0.289
11	LRRFIP2 (LRR binding FLII interacting protein 2)	0.0931	0.128	0.423
12	CEP63 (centrosomal protein 63)	0.144	0.474	0.294
13	CPNE7 (copine 7)	0.0749	0.189	0.372
14	FZD1 (frizzled class receptor 1)	0.146	0.201	0.402
15	GALR2 (galanin receptor 2)	0.189	0.248	0.272
16	GPR173 (G protein-coupled receptor 173)	0.21	0.319	0.335
17	NID1 (nidogen 1)	0.114	0.136	0.28
18	MGC40069 (retired record)	0.172	1.52	0.292
19	SRSF9 (serine and arginine rich splicing factor 9)	0.0926	0.145	0.301
20	PSG2 (pregnancy specific beta-1-glycoprotein 2)	0.157	0.112	0.466
21	SLC9D1	0.131	0.314	0.307
22	DDX28 (DEAD-box helicase 28)	0.0862	0.16	0.299
23	DUT (deoxyuridine triphosphatase)	0.111	0.235	0.247
24	TMPRSS11D (transmembrane serine protease 11D)	0.0657	0.465	0.179
25	APOBR (apolipoprotein B receptor)	0.147	0.415	0.277
26	SF3B3 (splicing factor 3b subunit 3)	0.316	0.876	0.32
27	ESM1 (endothelial cell specific molecule 1)	0.0614	0.0864	0.243
28	PYGL (glycogen phosphorylase L)	0.032	1.16	0.387
29	TUBA1A (tubulin alpha 1a)	0.085	0.36	0.267
30	FAM50B (family with sequence similarity 50 member B)	0.0849	0.322	1.11
31	FZD3 (frizzled class receptor 3)	0.181	0.223	0.213
32	MACF1 (microtubule actin crosslinking factor 1)	0.0768	0.152	0.122
33	DAPK3 (death associated protein kinase 3)	0.105	0.0884	0.328
34	ZBTB1 (zinc finger and BTB domain containing 1)	0.0973	0.388	0.394
